Record: PubChem BioAssay AID652272 (Drosophila RNAi Screening Center, 2013)

Purpose: 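Genome-wide knock-down search for components of Hedgehog signalling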 (primary screen)
Cell system: Drosophila clone 8 (Cl8) cells
Knock-down reagent: long dsRNA against Drosophila genes
Detection: 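Firefly light from a Hedgehog-responsive ptc promoter reporter and Renilla reference light, both read on a plate reader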
Reading the numbers: firefly Hh reporter signal: higher = more ptc reporter light; Renilla reference signal: higher = more Renilla control light
Hit rule: 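Called a hit if the two-replicate mean z-score lies below -2 or above +3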
Calls: active = hit: reporter lowered or raised; inactive = not a hit
The screen tested about 21,000 reagents; this is an unselected part of those that have a named target and a result. Of all reagents, 503 (2.4%) were called active. 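Raw plate light values, not normalised; calls rest on replicate z-scores that were not deposited; hits include reporter decreases as well as increases.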 A number with no mark means an inactive call. The numbers tell different reagents against one gene apart. Names joined by + are all predicted targets of the reagent. Not given: the amount of reagent, the time to read-out.

target	reagent	firefly Hh reporter signal, replicate 1	firefly Hh reporter signal, replicate 2	firefly Hh reporter signal, replicate 3	Renilla reference signal, replicate 1	Renilla reference signal, replicate 2
tgo (GeneID 41084)	1	1.11e5	1.01e5		3872	3725
Lap1 (GeneID 36670)	1	66618	38076		1657	2836
galla-2 (GeneID 39221)	1	5.47e5	76717	55873	3444	6484
NANS (GeneID 41528)	1	73857	1.42e5		2020	7170
CG4367 (GeneID 42409)	1	4.84e5	69332		27276	1997
CG10151 (GeneID 36639)	1	69872	69488		3498	3171
Dh31 (GeneID 34181)	1	98040	56360		2544	4988
scu (GeneID 32789)	1	67968	2.40e5		1528	8432
CG2854 (GeneID 31219)	1	75157	2.40e5		2069	8595
CG1275 (GeneID 38286)	1	1.00e5	82340		4816	3866
CG16789 (GeneID 41154)	1	77929	1.05e5		2819	3008
yrt (GeneID 41656)	1	1.66e5	60450		6435	1690
CG32750 (GeneID 326238)	1	71574	1.65e5		2484	6023
shn (GeneID 36171)	1	1.38e5	2.99e5		3952	13030
shn (GeneID 36171)	2	69958	73973		2916	2630
CG10383 (GeneID 35123)	1	96892	83467		4373	4055
CheA75a (GeneID 40011)	1	77536	39008		3033	1731
Tmem63 (GeneID 35779)	1	76394	47560		1649	4284
CG17739 (GeneID 36333)	1	79762	52251		3456	2332
CG32213 + CG12519 + 825-Oak + 1 more	1	7.16e5	2.57e5	1.17e5	5130	6000
clu (GeneID 36793)	1	1.47e5	63940		4960	2353
v (GeneID 32026)	1	1.02e5	64187		2370	1481
Shab (GeneID 38352)	1	1.19e5	1.88e5		3411	8219
Shab (GeneID 38352)	2	61251	26176		2540	2264
Shab (GeneID 38352)	3	1.27e5	69408		5056	1163
CtsL4 (GeneID 34401)	1	1.00e5	74470		2987	5985
CG17026 (GeneID 39739)	1	2.02e5			1945	5768
side-IV + asRNA:CR17025	1	1.00e5	82676		4000	2235
side-IV + asRNA:CR17025	2	1.13e5	79190		3399	2146
Sam-S (GeneID 48552)	1	1.21e5	64920		4999	3072
Pal1 + Pdrg1	1	1.02e5	77862		2641	5914
Gr77a (GeneID 117476)	1	2.19e5			4819	
Tektin-C (GeneID 38653)	1	31043 (active)	28752		6902	3619
h-cup (GeneID 41879)	1	93472	60544		3872	1712
Phlpp (GeneID 35178)	1	1.27e5	57525		2934	4803
CG42458 (GeneID 2768945)	1	1.01e5	2.22e5		2530	8593
CG42458 (GeneID 2768945)	2	27787 (active)	27160		1936	1537

Ordered by “Renilla reference signal, replicate 1” (high to low): 5 of the entries above.
target	reagent	firefly Hh reporter signal, replicate 1	firefly Hh reporter signal, replicate 2	firefly Hh reporter signal, replicate 3	Renilla reference signal, replicate 1	Renilla reference signal, replicate 2
Tektin-C (GeneID 38653)	1	31043 (active)	28752		6902	3619
Gr77a (GeneID 117476)	1	2.19e5			4819	
h-cup (GeneID 41879)	1	93472	60544		3872	1712
Phlpp (GeneID 35178)	1	1.27e5	57525		2934	4803
CG42458 (GeneID 2768945)	1	1.01e5	2.22e5		2530	8593

Continued.
target	reagent	firefly Hh reporter signal, replicate 1	firefly Hh reporter signal, replicate 2	firefly Hh reporter signal, replicate 3	Renilla reference signal, replicate 1	Renilla reference signal, replicate 2
CG17982 (GeneID 31739)	1	65925	1.89e5		2339	6727
CG11837 (GeneID 43429)	1	67268	75558		976	2268
LKRSDH (GeneID 34064)	1	93792	72570		3200	2941
CG32191 (GeneID 317903)	1	97929			4054	2726
CG32195 (GeneID 317907)	1	2.18e5			5184	
Msh6 (GeneID 39654)	1	78209			3074	2218
Tusp (GeneID 43317)	1	76642	98476		1785	2568
CG31368 (GeneID 41437)	1	49413	73540		1953	1980
CG31368 (GeneID 41437)	2	98134	71664		3820	2899
CG15014 (GeneID 38533)	1	74601	66866		6034	4503
CG8675 (GeneID 32716)	1	1.00e5	1.02e5		2301	2720
CG31777 (GeneID 261617)	1	5.86e5	3.34e5		29700	13328
CG13284 (GeneID 35021)	1	1.03e5	44881		2640	4801
Arpc3A (GeneID 41917)	1	46758	61776		944	2135
wrd (GeneID 42169)	1	2.11e5 (active)	25491		15760	1392
wrd (GeneID 42169)	2	6.19e5	1.10e5		31157	2704
flw (GeneID 44289)	1	99000	2.92e5		3090	9963
flw (GeneID 44289)	2	80569	4.12e5		2880	14860
Pez (GeneID 33882)	1	1.33e5	50817		3445	5389
temp (GeneID 31212)	1	1.24e5	87224		2904	2644
Srp14 (GeneID 42436)	1	6.61e5	1.10e5		36168	2914
CG11089 + CG31381	1	1680	1.99e5		413	2850
CG11089 + CG31381	2	98401	99756		3780	4178
CG32755 (GeneID 318192)	1	63467	1.73e5		1425	7081
CG1647 (GeneID 43401)	1	97840	78551		1604	1936
Cpr97Ea (GeneID 43258)	1	1.01e5	97985		3020	2850
CG3919 (GeneID 39582)	1	1.13e5	1.13e5		4106	4532
Cdc37 (GeneID 38232)	1	54852	39225		2193	3362
CG17490 (GeneID 3355125)	1	1.54e5	1.90e5		4432	9160
CG17490 (GeneID 3355125)	2	76436	60131		2491	5606
CG30158 (GeneID 50149)	1	1.16e5 (active)	1.90e5		4080	11643
CG30158 (GeneID 50149)	2	97154	66405		2168	5875
CG30158 (GeneID 50149)	3	1.07e5	74608		2697	6538
CG30158 (GeneID 50149)	4	1.13e5	73828		2804	6672
CG42268 (GeneID 39145)	1	29675 (active)	47401	32432	6185	4245
CG42268 (GeneID 39145)	2	30151	44612	53602	3616	3639
